Measurements as given in US20060211632A1, “PXR agonists for cardiovascular disease” (priority 2005, published 2006).
At least one structure is not confirmed: it was looked up by name or label, or the drawing left a doubt.

Columns and labels:
[1] = test system: serum HDL-C; assay: Serum HDL-C in wild-type mice after 7 days of treatment; type: in vivo, wild-type (WT; C57BL/6) mice; details: gavage once daily 7 days, 100 mg/kg, gemfibrozil 20 mg/kg, troglitazone 6 and 60 mg/Kg, Dunnett's procedure
Experimental: In all cases methylcellulose was used as a vehicle control. These chemicals were administered, as a suspension in 1% methylcellulose (vehicle) by gavage using a 20 G—1½-inch feeding needle. The animals were treated in groups of three and for each treated group two mice were treated simultaneously with methylcellulose (vehicle). Each treatment was given once daily in the morning for seven days. […] The volume of vehicle used to suspend the treatment drugs and the dose of vehicle for control group was 7 ml/kg. Doses were selected based on the results obtained from previous studies in rats except for troglitazone and hyperforin, for which doses were weight-adjusted using estimates of average daily human doses as reference. After the completion of the treatment (i.e. on day 8), blood samples were collected from the tail of the animals for serum HDL-C and ApoA1 determination. […] The serum samples were then stored at −20° C. for up to 24 hours before quantitative determination of HDL-C and ApoA1. HDL-C was determined quantitatively in the serum using Liquid Direct HDL kits. […] Each sample was analyzed twice, and the average of both readings was used. […] Normality and homoscedasticity (constancy of variance across groups) were evaluated, with an appropriate data transformation (logarithmic) applied if necessary. […]

[2] = test system: serum ApoA1; assay: Serum apoA1 in PXR-KO mice after 7 days of treatment; type: in vivo; details: gavage once daily 7 days, gemfibrozil 20 mg/kg, others 100 mg/kg
Experimental: (§1) PXR-KO mice were treated with either rifampicin, gemfibrozil, or CDD 3540. In all cases methylcellulose was used as a vehicle control. These chemicals were administered, as a suspension in 1% methylcellulose (vehicle) by gavage using a 20 G—1½-inch feeding needle. The animals were treated in groups of three and for each treated group two mice were treated simultaneously with methylcellulose (vehicle). Each treatment was given once daily in the morning for seven days. The doses were 100 mg/kg for CTZ, rifampicin, CDD 3540, phenobarbital and TCPOBOP, 6 mg/kg and 60 mg/Kg for troglitazone and 0.175 mg/Kg and 1.75 mg/Kg for hyperforin, and for gemfibrozil 20 mg/Kg and 100 mg/Kg. […]
(§2) After the completion of the treatment (i.e. on day 8), blood samples were collected from the tail of the animals for serum HDL-C and ApoA1 determination. […] The serum samples were then stored at −20° C. for up to 24 hours before quantitative determination of HDL-C and ApoA1.
(§3) An immuno-turbidimetric assay was developed for quantitative determination of ApoA1 in mouse serum. […] 1 μl of mouse plasma was mixed with 3 μl of distilled water for quantitation of apoA1. […] Absorbance was measured at 580 nm using a Beckmann DU640 Spectrophotometer. Each sample or standard was analyzed twice, and the average of both readings was used. […]

[3] = test system: serum ApoA1; assay: Serum apoA1 in wild-type mice after 7 days of treatment (immuno-turbidimetric assay); type: in vivo, wild-type (WT; C57BL/6) mice; details: gavage once daily 7 days, 100 mg/kg, gemfibrozil 20 mg/Kg, troglitazone 6 and 60 mg/Kg, Dunnett's procedure
Experimental: as §1, §2, §3

| Compound | HDL-C relative to controls (methylcellulose) [1] | apoA1 relative to control [2] | apoA1 relative to controls (methylcellulose) [3] |
| --- | --- | --- | --- |
| CO[C@H]1/C=C/O[C@@]2(C)Oc3c(C)c(O)c4c(O)c(c(/C=N/N5CCN(C)CC5)c(O)c4c3C2=O)NC(=O)/C(C)=C\C=C\[C@H](C)[C@H](O)[C@@H](C)[C@@H](O)[C@@H](C)[C@H](OC(C)=O)[C@@H]1C [rifampin, rifampicin] | did not achieve statistical significance | neither rifampin nor CDD 3540 elicited significant changes | significantly elevated |
| Cc1c(C)c2c(c(C)c1O)CCC(C)(COc1ccc(CC3SC(=O)NC3=O)cc1)O2 (centres unmarked) [troglitazone] | absence of effects |  | absence of effects |
